Results are given in words; binding and its absence hold for the method and conditions named. Binding seen in cells or lysates may run through a third protein. Here binding means that the protein was enriched with, or labelled near, the bait; the list need not be complete.
Target: Flag-tagged IGF2BP3 (insulin-like growth factor 2 mRNA binding protein 3) (UniProt O00425)
Assay: affinity purification with mass spectrometry; Flag-tagged IGF2BP3 transfected into HEK293T cells, 48 h; lysates immunopurified with Flag affinity beads, eluted with Flag peptides; SDS-PAGE, silver stain, excised gel segments analysed by mass spectrometry

By UniProt entry, the sequences of proteins in these tests, tags left out.
UniProt O00425: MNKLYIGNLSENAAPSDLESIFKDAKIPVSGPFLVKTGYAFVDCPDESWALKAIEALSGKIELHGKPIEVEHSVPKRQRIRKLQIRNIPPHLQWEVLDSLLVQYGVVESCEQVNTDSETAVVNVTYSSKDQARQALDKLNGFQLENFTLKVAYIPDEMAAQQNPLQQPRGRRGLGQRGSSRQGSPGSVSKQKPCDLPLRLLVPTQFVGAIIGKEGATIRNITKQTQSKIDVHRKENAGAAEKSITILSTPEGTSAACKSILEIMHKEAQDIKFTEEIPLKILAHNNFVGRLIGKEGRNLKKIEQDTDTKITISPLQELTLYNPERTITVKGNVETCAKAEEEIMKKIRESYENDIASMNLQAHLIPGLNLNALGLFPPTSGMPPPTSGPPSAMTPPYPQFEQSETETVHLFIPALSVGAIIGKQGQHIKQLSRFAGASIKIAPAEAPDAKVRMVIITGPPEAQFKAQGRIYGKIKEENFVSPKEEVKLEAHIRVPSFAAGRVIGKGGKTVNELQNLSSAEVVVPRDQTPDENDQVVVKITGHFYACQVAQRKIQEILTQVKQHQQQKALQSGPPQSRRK

| binding | Binder |
| --- | --- |
| binds | HNRNPL (protein, UniProt P14866 1-589) MSRRLLPRAEKRRRRLEQRQQPDEQRRRSGAMVKMAAAGGGGGGGRYYGGGSEGGRAPKRLKTDNAGDQHGGGGGGGGGAGAAGGGGGGENYDDPHKTPASPVVHIRGLIDGVVEADLVEALQEFGPISYVVVMPKKRQALVEFEDVLGACNAVNYAADNQIYIAGHPAFVNYSTSQKISRPGDSDDSRSVNSVLLFTILNPIYSITTDVLYTICNPCGPVQRIVIFRKNGVQAMVEFDSVQSAQRAKASLNGADIYSGCCTLKIEYAKPTRLNVFKNDQDTWDYTNPNLSGQGDPGSNPNKRQRQPPLLGDHPAEYGGPHGGYHSHYHDEGYGPPPPHYEGRRMGPPVGGHRRGPSRYGPQYGHPPPPPPPPEYGPHADSPVLMVYGLDQSKMNCDRVFNVFCLYGNVEKVKFMKSKPGAAMVEMADGYAVDRAITHLNNNFMFGQKLNVCVSKQPAIMPGQSYGLEDGSCSYKDFSESRNNRFSTPEQAAKNRIQHPSNVLHFFNAPLEVTEENFFEICDELGVKRPSSVKVFSGKSERSSSGLLEWESKSDALETLGFLNHYQMKNPNGPYPYTLKLCFSTAQHAS |
| binds | DHX57 (protein, UniProt Q6P158 1-1386) MSSSVRRKGKPGKGGGKGSSRGGRGGRSHASKSHGSGGGGGGGGGGGGGNRKASSRIWDDGDDFCIFSESRRPSRPSNSNISKGESRPKWKPKAKVPLQTLHMTSENQEKVKALLRDLQEQDADAGSERGLSGEEEDDEPDCCNDERYWPAGQEPSLVPDLDPLEYAGLASVEPYVPEFTVSPFAVQKLSRYGFNTERCQAVLRMCDGDVGASLEHLLTQCFSETFGERMKISEAVNQISLDECMEQRQEEAFALKSICGEKFIERIQNRVWTIGLELEYLTSRFRKSKPKESTKNVQENSLEICKFYLKGNCKFGSKCRFKHEVPPNQIVGRIERSVDDSHLNAIEDASFLYELEIRFSKDHKYPYQAPLVAFYSTNENLPLACRLHISEFLYDKALTFAETSEPVVYSLITLLEEESEIVKLLTNTHHKYSDPPVNFLPVPSRTRINNPACHKTVIPNNSFVSNQIPEVEKASESEESDEDDGPAPVIVENESYVNLKKKISKRYDWQAKSVHAENGKICKQFRMKQASRQFQSILQERQSLPAWEERETILNLLRKHQVVVISGMTGCGKTTQIPQFILDDSLNGPPEKVANIICTQPRRISAISVAERVAKERAERVGLTVGYQIRLESVKSSATRLLYCTTGVLLRRLEGDTALQGVSHIIVDEVHERTEESDFLLLVLKDIVSQRPGLQVILMSATLNAELFSDYFNSCPVITIPGRTFPVDQFFLEDAIAVTRYVLQDGSPYMRSMKQISKEKLKARRNRTAFEEVEEDLRLSLHLQDQDSVKDAVPDQQLDFKQLLARYKGVSKSVIKTMSIMDFEKVNLELIEALLEWIVDGKHSYPPGAILVFLPGLAEIKMLYEQLQSNSLFNNRRSNRCVIHPLHSSLSSEEQQAVFVKPPAGVTKIIISTNIAETSITIDDVVYVIDSGKMKEKRYDASKGMESLEDTFVSQANALQRKGRAGRVASGVCFHLFTSHHYNHQLLKQQLPEIQRVPLEQLCLRIKILEMFSAHNLQSVFSRLIEPPHTDSLRASKIRLRDLGALTPDERLTPLGYHLASLPVDVRIGKLMLFGSIFRCLDPALTIAASLAFKSPFVSPWDKKEEANQKKLEFAFANSDYLALLQAYKGWQLSTKEGVRASYNYCRQNFLSGRVLQEMASLKRQFTELLSDIGFAREGLRAREIEKRAQGGDGVLDATGEEANSNAENPKLISAMLCAALYPNVVQVKSPEGKFQKTSTGAVRMQPKSAELKFVTKNDGYVHIHPSSVNYQVRHFDSPYLLYHEKIKTSRVFIRDCSMVSVYPLVLFGGGQVNVQLQRGEFVVSLDDGWIRFVAASHQVAELVKELRCELDQLLQDKIKNPSIDLCTCPRGSRIISTIVKLVTTQ |

Reference: PMC5706827
